Test results taken from paper doi:10.1101/2020.05.13.094102.
Like-named read-outs stand apart in the source and are kept apart here. These are yes or no findings as the source states them, for the method shown. Some binding calls cover weakened binding; strength is not graded here.

The chains behind the UniProt entries cited, without tags or fusion partners. Residues count along the entry.
UniProt P36544, residues 23-502: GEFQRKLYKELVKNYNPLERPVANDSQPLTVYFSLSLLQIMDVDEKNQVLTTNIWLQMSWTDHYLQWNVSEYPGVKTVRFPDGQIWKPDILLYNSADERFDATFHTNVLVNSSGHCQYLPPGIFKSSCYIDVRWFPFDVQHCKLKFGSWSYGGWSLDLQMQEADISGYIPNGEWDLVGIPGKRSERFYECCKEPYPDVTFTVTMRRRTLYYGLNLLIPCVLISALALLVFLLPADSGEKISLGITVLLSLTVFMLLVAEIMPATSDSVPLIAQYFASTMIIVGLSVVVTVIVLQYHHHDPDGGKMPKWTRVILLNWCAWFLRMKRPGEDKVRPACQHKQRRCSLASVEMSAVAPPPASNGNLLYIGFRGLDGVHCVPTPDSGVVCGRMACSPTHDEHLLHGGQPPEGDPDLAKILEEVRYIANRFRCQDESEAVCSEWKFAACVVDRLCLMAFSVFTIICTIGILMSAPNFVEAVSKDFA
UniProt P17787, residues 26-502: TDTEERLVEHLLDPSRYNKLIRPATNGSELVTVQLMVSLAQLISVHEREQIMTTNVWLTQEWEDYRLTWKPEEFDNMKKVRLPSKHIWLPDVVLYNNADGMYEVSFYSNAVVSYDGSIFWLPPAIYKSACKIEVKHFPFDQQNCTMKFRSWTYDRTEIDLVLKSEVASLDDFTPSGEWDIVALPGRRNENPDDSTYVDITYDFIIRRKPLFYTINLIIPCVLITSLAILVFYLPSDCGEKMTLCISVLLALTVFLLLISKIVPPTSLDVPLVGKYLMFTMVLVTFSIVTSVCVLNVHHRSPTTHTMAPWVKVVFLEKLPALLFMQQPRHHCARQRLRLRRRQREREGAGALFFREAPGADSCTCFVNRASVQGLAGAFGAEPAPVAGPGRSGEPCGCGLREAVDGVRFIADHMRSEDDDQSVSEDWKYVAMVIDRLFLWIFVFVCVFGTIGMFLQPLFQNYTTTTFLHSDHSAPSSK
UniProt Q07812: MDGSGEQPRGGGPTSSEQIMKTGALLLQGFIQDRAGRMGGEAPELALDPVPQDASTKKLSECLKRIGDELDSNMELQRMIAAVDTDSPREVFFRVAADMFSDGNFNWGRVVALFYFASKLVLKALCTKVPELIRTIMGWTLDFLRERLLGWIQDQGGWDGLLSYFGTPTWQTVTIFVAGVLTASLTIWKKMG

What was measured:
Assay in all cases: ELISA
[1] = target: α7 nicotinic acetylcholine receptor subunit (human (endogenous in U373)) (UniProt P36544)
[2] = target: β2 nicotinic acetylcholine receptor subunit (human (endogenous in U373)) (UniProt P17787)
[3] = target: α7 nicotinic acetylcholine receptor subunit (human (endogenous in U373)) (UniProt P36544); remark: listed apart in the source

Measured: binding

Bax (from UniProt Q07812 1-192)
binds: all assays above
